The results in this text go back to patent publication US20250019401A1 (Xiamen University, priority 2023, published 2025).

A short description of the data set: peptide made by a vendor. Conditions: whole synthesis, HPLC.

Some peptides are written in HELM: one residue between dots, names in brackets for other building blocks, links after the first $.

“PEPTIDE1{L.I.G.L.Y.L.L.H.R.R.R.R.R.H}$$$$V2.0”: the “purity (crude or final not stated)” value was “no less than 95%”.
